These are yes or no findings as the source states them, for the method shown. Binding seen in cells or lysates may run through a third protein. Some entries that bind do so weakly or less than the wild type.
Target: wild-type rat c-neu/ErbB2 transgene-encoded protein (rat) (UniProt P06494)
Assay: co-IP; 200 ug total cell lysate (NP-40 lysis buffer) immunoprecipitated with anti-erbB2 antibody c-neu Ab-4 and protein A-agarose at 4°C, then Western blot for erbB2 (c-neu Ab-3) and erbB3; cells kept overnight in 0.5% FBS, then with or without 2.5 ng/ml HRG for 2 h; low level of complex in untreated …

Protein sequences, listed by entry. Tags and fused reporters are not part of them. Residues count along the entry.
UniProt P06494, residues 23-1257: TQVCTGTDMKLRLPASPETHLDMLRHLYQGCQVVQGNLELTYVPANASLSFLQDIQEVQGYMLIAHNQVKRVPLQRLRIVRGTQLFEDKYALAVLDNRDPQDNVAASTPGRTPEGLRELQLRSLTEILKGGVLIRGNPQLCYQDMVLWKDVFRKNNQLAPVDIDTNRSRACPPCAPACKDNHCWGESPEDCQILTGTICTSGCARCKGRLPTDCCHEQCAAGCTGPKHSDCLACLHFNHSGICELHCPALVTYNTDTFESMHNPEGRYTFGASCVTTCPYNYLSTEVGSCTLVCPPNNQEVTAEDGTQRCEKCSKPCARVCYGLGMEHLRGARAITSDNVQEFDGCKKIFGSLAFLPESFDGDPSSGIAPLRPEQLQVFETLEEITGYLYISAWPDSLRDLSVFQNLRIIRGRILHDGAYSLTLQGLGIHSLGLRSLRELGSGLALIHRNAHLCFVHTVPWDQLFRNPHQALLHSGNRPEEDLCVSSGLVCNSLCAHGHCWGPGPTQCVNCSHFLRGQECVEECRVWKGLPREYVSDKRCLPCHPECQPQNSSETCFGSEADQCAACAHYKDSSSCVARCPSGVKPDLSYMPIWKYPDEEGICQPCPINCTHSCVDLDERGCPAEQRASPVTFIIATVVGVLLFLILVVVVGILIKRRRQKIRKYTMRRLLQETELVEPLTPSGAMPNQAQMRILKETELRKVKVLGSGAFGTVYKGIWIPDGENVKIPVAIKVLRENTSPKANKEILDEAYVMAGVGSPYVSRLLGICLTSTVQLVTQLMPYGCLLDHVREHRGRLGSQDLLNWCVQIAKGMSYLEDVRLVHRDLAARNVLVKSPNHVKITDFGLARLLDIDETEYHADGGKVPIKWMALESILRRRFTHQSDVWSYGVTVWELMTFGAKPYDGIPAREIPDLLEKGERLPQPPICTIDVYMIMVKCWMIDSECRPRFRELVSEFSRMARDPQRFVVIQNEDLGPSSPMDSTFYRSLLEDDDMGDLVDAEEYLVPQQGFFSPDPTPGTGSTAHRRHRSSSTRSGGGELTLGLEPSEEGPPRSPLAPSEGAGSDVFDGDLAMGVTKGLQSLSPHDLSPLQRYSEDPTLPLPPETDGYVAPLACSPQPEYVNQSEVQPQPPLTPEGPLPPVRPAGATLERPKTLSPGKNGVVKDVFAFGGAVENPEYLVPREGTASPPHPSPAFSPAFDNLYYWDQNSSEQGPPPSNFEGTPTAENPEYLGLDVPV
UniProt Q61526, residues 20-1339: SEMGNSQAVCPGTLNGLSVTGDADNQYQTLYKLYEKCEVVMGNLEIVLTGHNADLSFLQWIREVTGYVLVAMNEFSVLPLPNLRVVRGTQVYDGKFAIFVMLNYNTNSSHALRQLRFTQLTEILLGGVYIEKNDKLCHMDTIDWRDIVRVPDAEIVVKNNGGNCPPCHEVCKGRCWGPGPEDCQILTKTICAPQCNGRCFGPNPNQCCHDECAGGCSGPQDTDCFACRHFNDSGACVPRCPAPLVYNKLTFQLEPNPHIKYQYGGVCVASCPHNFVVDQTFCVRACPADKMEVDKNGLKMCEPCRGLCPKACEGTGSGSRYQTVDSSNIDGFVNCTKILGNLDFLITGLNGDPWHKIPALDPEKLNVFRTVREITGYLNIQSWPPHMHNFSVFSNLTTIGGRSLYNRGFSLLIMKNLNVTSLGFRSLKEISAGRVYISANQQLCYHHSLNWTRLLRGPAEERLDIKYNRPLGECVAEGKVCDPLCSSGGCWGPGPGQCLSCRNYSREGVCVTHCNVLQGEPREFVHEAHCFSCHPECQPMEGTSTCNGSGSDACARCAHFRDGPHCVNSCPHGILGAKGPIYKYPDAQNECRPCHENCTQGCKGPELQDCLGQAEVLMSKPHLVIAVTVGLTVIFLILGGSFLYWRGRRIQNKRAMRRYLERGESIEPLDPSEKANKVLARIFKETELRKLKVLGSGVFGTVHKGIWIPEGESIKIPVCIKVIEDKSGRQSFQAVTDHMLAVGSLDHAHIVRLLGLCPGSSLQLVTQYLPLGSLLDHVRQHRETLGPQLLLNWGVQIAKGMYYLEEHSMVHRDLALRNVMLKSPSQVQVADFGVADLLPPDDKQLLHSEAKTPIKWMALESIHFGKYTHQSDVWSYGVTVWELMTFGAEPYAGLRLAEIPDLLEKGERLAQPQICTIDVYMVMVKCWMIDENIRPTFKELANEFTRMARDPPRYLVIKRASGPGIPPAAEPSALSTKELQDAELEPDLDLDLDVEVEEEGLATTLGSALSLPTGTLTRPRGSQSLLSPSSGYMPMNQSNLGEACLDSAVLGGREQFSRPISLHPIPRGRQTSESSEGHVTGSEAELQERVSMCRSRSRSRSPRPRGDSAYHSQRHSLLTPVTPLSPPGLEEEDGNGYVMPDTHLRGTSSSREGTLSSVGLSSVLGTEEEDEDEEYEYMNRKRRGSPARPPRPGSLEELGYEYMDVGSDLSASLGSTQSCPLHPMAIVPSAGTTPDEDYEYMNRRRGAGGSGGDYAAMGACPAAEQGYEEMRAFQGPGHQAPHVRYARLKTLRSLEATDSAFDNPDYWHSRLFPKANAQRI

Substance: endogenous mouse erbB3 (from UniProt Q61526 20-1339) (receptor)
- binding: binds

Reference: PMC1242139
